Laboratory results as given in article doi:10.1101/2021.11.11.468204.

By UniProt entry, the sequences of proteins in these tests, tags left out. Residues count along the entry.
UniProt O95202, residues 116-739: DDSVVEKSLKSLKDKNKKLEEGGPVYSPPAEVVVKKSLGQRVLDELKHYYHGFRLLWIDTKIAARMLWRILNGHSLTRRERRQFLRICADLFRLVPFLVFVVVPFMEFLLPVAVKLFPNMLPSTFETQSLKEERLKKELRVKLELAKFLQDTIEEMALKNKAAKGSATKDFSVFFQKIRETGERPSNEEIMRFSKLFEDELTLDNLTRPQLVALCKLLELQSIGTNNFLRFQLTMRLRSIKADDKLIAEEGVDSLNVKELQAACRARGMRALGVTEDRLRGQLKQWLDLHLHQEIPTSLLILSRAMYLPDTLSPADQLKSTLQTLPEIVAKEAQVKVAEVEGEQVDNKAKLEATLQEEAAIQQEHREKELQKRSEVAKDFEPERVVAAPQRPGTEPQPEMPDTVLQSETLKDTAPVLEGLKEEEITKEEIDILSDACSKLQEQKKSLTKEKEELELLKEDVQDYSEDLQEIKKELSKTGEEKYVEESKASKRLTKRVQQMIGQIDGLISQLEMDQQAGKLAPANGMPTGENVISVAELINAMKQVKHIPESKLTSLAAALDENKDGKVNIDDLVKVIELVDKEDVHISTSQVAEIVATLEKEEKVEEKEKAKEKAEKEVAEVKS
UniProt Q9UHD2: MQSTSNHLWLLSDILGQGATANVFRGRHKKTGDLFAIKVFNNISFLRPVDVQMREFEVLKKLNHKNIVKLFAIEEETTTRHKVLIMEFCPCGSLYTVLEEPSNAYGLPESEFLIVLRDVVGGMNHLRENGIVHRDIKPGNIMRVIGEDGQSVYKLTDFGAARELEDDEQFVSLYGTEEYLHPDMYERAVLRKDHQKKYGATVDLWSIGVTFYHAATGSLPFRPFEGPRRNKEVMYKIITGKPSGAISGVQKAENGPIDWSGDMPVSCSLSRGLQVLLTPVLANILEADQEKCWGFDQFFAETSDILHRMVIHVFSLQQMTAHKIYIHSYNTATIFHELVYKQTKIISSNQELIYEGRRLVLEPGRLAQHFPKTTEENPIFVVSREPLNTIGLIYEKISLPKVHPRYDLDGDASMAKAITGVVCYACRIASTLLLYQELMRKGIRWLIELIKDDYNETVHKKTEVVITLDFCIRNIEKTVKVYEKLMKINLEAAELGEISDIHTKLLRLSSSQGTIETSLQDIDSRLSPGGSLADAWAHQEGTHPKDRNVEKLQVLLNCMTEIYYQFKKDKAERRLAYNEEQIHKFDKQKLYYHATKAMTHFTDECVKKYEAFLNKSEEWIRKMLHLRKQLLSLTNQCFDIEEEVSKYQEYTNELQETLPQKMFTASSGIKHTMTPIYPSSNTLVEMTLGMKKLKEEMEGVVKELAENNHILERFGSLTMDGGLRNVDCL

B1: mitochondrial Morphology and Cristae Structure 1 (MICS1) (protein, UniProt Q9H3K2 46-345)
chain: ATKTRIGIRRGRTGQELKEAALEPSMEKIFKIDQMGRWFVAGGAAVGLGALCYYGLGLSNEIGAIEKAVIWPQYVKDRIHSTYMYLAGSIGLTALSAIAISRTPVLMNFMMRGSWVTIGVTFAAMVGAGMLVRSIPYDQSPGPKHLAWLLHSGVMGAVVAPLTILGGPLLIRAAWYTAGIVGGLSTVAMCAPSEKFLNMGAPLGVGLGLVFVSSLGSMFLPPTTVAGATLYSVAMYGGLVLFSMFLLYDTQKVIKRAEVSPMYGVQKYDPINSMLSIYMDTLNIFMRVATMLATGGNRKK

What was measured:
Assay in all cases: affinity purification with mass spectrometry
[1] = target: LETM1-StrepHA (UniProt O95202)
[2] = target: LETM1-StrepHA (UniProt O95202); remark: listed apart in the source
[3] = target: LETM1-StrepHA (UniProt O95202); remark: listed apart in the source

Molecule	binding [1]	binding [2]	binding [3]
TBK1 (from UniProt Q9UHD2 1-729)	binds	binds	–
B1	–	–	binds

Read-outs that look alike come from different tables or passages of the source. These are yes or no findings as the source states them, for the method shown. In cells and extracts the contact can be indirect. A yes stands for co-enrichment or nearness to the bait. Other partners may have been found.
